Screening data

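Uptake of anthrax lethal toxin into cultured cells, read by FRET (460/530 nm ratio) and reported from the 460 nm channel; the cell line is not named here. Each compound was tested as a concentration series from about 0.0005 to 40 µM. The number is the fitted AC50 of the 460 nm signal alone; lower values mean a more potent effect. A falling signal goes with compounds filed as inhibitors or cytotoxic, a rising one with activators or fluorescent compounds (inferred from the filed classes).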

Values are in µM. Common to all entries: measured here: 460 nm channel. This is a side read-out of the assay, for part of the compounds, not drawn at random. A potency from a partial, single-point or poor curve is only a rough figure. The first word of each remark tells which way the curve ran; it can be opposite to the aim of the assay.

SMILES,AC50 (µM),remark
CN1CCN(c2ncc3nc(-c4ccc(Cl)cc4)c(=O)n(-c4ccccc4)c3n2)CC1,2.512,"rising, full curve"
Cc1ccc2nc(CSc3nnc(Cc4cccs4)n3C3CCCCC3)cc(=O)n2c1,0.003162,"falling, full curve, poor fit"
Cc1cc(C)c2nc(SCC#N)cc(C)c2c1,6.31,"falling, partial curve"
CC(=O)Nc1cc(OC(C)=O)c2nonc2c1OC(C)=O,1.259,"falling, partial curve"
CS(=O)(=O)N(CC(=O)N1CCCCCC1)c1ccc(Br)cc1,10,"rising, single point"
COc1ccccc1NC(=O)NCCCN1CCN(c2cccc(Cl)c2)CC1,19.95,"falling, single point"
O=C1[C@@H]2[C@H](Cc3ccc(O)cc3)N[C@]3(C(=O)Nc4ccccc43)[C@@H]2C(=O)N1c1ccc(F)cc1,0.007943,"falling, full curve"
CN(C)c1ccc(-c2ccc3ncnc(-n4ccnc4)c3c2)cc1,5.012,"falling, partial curve"
CCOC(=O)C1=C(C)NC(C)=C(C(=O)OCC)C1c1cc2ccc(C)cc2[nH]c1=O,12.59,"rising, partial curve"
CC12CCC(C(=O)Nc3ccccc3N3CCOCC3)(CC1=O)C2(C)C (centres unmarked),0.01995,"falling, full curve, poor fit"
CN1CCN(c2ncc3nc(-c4cc(F)cc(F)c4)c(=O)n(-c4ccccc4)c3n2)CC1,3.981,"rising, full curve"
Cc1ccc(N)cc1O,12.59,"falling, single point"
COc1ccc(NC(=O)c2c(NC(=O)CNCc3ccco3)sc3c2CCC3)cc1,31.62,"falling, single point"
N#C/C(=C(/O)COC(=O)CCc1ccc(S(=O)(=O)N2CCOCC2)cc1)c1nc2ccccc2[nH]1,7.943,"rising, partial curve"
CCc1ccccc1NC(=O)C(CC)Sc1nc2cc3c(cc2c(=O)n1Cc1ccco1)OCO3 (centres unmarked),1.259,"rising, partial curve, poor fit"
CC1(C)CC(=O)C2=C(C1)OC1=C(C(=O)CC(C)(C)C1)C2c1ccc(O)cc1O,2.512,"falling, full curve"
COc1cc2nc(N3CCN(C(=O)[C@H]4CCCO4)CC3)nc(N)c2cc1OC,12.59,"falling, single point"
CCN=c1sc(C(=O)NCCc2ccccc2)cc(=O)n1CC,19.95,"rising, single point"
Oc1c(C(c2cccs2)N2CCC3(CC2)OCCO3)sc2ncnn12 (centres unmarked),0.3162,"rising, full curve"
COC(=O)[C@@]1(Cc2ccc(OC)cc2)[C@H]2c3cc(C(=O)N(C)C)n(Cc4cccc5ccccc45)c3C[C@H]2CN1C(=O)c1ccccc1,10,"rising, partial curve"
O=C(OCC1COc2ccccc2O1)c1c(F)cccc1F (centres unmarked),0.1,"falling, full curve"
CN1CCc2cc(Cl)c(O)cc2[C@@H](c2ccccc2)C1,12.59,"falling, single point"
CCC(=O)Nc1c(OC(=O)CC)ccc2c(C)cc(=O)oc12,10,"rising, partial curve"
COc1ccc(-c2noc(CCC(=O)NCCCN3CCC(Cc4ccccc4)CC3)n2)cc1,5.012,"rising, single point"
CCN(CC)CC(=O)Nc1c(Br)ccc2c1OCO2,5.012,"falling, partial curve"
CN(C)c1ncc2nc(-c3ccccc3)c(=O)n(C)c2n1,10,"rising, partial curve"
Cc1nonc1NC(=O)CSc1nc(C2CCCCC2)nc2ccccc12,10,"falling, partial curve, poor fit"
CNc1ccc2oc(C[C@H]3O[C@]4(CC[C@H]3C)O[C@H]([C@H](C)C(=O)c3ccc[nH]3)[C@H](C)C[C@H]4C)nc2c1C(=O)O,0.2512,"falling, full curve"
CCOc1ccccc1CN(Cc1ccco1)S(=O)(=O)c1ccc(-n2cnnn2)c(OC)c1,19.95,"falling, single point"
COC(=O)c1cccc(Nc2nc3ccccc3nc2C)c1,19.95,"falling, single point"
COc1ccc(-n2c(=O)cnc3cnc(N4CCOCC4)nc32)cc1,31.62,"falling, single point"
CC1CN(CC(O)COc2ccc(C(=O)c3ccccc3)cc2)CC(C)O1 (centres unmarked),12.59,"falling, partial curve"
Cc1cccc(OCC(=O)Nc2ccc(N3CCCC3)cc2)c1C,31.62,"falling, single point"
COc1cc2c(c(OC)c1OC)-c1ccc(OC)c(=O)cc1[C@H](NC(C)=O)CC2,0.1259,"falling, full curve, poor fit"
COc1ccc2cc3cc(C(=O)NCCc4ccc(OC)c(OC)c4)oc3nc2c1,10,"falling, partial curve"
COCCNC(=O)CSc1nc2cc(OC)c(OC)cc2c(=O)n1CCC1=CCCCC1,5.012,"rising, partial curve, poor fit"
CC1=C(C(=O)Nc2cc(-c3cccc(F)c3)[nH]n2)C2(CCCCC2)OC1=O,25.12,"falling, single point"
N#CCCn1c(=O)c(-c2ccc(Cl)cc2)nc2cnc(Nc3ccccc3)nc21,12.59,"rising, partial curve"
O=C(Nc1ccc2ccccc2c1)c1cccnc1,19.95,"falling, partial curve, poor fit"
O=C(C1=C(O)C(=O)N(CCc2ccccc2)C1c1cccnc1)c1ccco1 (centres unmarked),12.59,"rising, single point"
COc1ccc(-c2nc3cnc(N4CCOCC4)nc3n(CCC#N)c2=O)cc1,12.59,"rising, partial curve"
Cc1cc(NC(=O)COc2cccc(Oc3ccccc3)c2)no1,15.85,"falling, partial curve"
CSc1nc(=NC(C)=O)ss1,1,"falling, full curve"
CCOC(=O)N1CCN(C(=O)CSc2nnc(-c3cccc(Cl)c3)o2)CC1,1.995,"rising, full curve"
COC(=O)[C@@]1(Cc2ccccc2)[C@H]2c3cc(C(=O)N(C)C)n(Cc4ccc(OC)c(OC)c4)c3C[C@H]2CN1C(=O)c1ccccc1,10,"rising, single point"

The first 4 entries again:

SMILES,AC50 (µM),remark
CN1CCN(c2ncc3nc(-c4ccc(Cl)cc4)c(=O)n(-c4ccccc4)c3n2)CC1,2.512,"rising, full curve"
Cc1ccc2nc(CSc3nnc(Cc4cccs4)n3C3CCCCC3)cc(=O)n2c1,0.003162,"falling, full curve, poor fit"
Cc1cc(C)c2nc(SCC#N)cc(C)c2c1,6.31,"falling, partial curve"
CC(=O)Nc1cc(OC(C)=O)c2nonc2c1OC(C)=O,1.259,"falling, partial curve"

From PubChem BioAssay record AID912 (NCATS, 2007).